For one substance, binding results are on record in paper PMC11126483.

By UniProt entry, the sequences of proteins in these tests, tags left out.
UniProt Q96P20: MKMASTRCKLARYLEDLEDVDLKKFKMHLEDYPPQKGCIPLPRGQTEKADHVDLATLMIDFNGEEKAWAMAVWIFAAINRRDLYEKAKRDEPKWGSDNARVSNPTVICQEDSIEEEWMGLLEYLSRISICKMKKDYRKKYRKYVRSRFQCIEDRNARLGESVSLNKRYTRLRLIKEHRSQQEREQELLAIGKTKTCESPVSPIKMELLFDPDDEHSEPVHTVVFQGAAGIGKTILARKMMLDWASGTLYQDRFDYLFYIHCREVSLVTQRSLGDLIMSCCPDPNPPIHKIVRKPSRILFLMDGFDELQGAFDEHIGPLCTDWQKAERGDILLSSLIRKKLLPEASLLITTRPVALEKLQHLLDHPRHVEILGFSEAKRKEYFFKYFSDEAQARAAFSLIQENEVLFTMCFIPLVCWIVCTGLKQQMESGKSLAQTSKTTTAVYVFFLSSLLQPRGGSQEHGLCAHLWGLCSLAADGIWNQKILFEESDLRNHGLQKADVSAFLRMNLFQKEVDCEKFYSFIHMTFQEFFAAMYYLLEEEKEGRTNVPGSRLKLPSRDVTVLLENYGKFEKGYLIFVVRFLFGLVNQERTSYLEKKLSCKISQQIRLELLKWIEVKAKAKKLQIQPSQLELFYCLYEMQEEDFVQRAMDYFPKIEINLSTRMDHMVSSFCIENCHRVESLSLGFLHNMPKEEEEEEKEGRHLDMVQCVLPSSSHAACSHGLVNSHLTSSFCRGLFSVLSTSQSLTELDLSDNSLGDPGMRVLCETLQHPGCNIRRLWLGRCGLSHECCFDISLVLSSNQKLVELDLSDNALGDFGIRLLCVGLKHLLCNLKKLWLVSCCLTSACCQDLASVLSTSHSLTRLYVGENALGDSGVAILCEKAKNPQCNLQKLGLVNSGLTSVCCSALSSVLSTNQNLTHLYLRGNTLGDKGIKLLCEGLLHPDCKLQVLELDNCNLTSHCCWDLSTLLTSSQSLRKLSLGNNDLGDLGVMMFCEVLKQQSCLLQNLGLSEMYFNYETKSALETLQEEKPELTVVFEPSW

Results are given in words; binding and its absence hold for the method and conditions named. In cells and extracts the contact can be indirect. Some binding calls cover weakened binding; strength is not graded here. Sequences can lack the tags named with a protein.

The experiment addresses T1, Flag-FXR (farnesoid X receptor) (human) (UniProt Q96RI1).
T1 sequence: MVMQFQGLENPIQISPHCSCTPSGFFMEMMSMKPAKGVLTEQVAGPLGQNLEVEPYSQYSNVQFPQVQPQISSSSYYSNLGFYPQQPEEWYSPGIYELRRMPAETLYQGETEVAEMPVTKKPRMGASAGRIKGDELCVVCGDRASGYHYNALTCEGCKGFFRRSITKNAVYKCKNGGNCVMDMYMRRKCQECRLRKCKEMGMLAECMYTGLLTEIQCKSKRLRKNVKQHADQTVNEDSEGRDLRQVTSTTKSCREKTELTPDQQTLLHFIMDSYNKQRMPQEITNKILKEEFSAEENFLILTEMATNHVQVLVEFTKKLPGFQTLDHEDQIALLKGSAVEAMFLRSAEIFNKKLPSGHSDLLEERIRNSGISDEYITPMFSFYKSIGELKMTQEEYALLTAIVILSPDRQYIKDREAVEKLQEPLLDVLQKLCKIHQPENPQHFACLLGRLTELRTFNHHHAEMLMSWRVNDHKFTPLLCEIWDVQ
Briefly: co-IP; lysate of LX2 cells overexpressing Flag-FXR; IP with anti-Flag (1:50) or anti-NLRP3 (1:200) antibody, IgG control, protein A/G Plus-Agarose, 4 °C overnight; immunoblotting. On the technique in general: In western blotting, separated proteins are transferred to a membrane and probed.

Take “NACHT, LRR, and PYD domain-containing protein 3 (NLRP3) (from UniProt Q96P20 1-1036)”: the binding result was “binds”.
